Counter-ions that a name gives are not always drawn. This is one part of the list. The calls rarely recur for the same compound in another form.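 Kinases were expressed as nanoluciferase fusions in K562 cells and luminescence was read every 4 h between 2 and 18 h as percent of control, DMSO set to 100% and a positive control to 0%. A time point counts as decreased when the signal drops significantly (2 sigma). The hit call is the authors' own, does not follow from the count of time points alone, and its rule is not shown.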
Tests used:
Assay in all cases: number of time points (of 5) at which kinase-Nluc abundance scored as decreased, DMSO-normalised (count); higher = more persistent destabilization
Conditions in all cases: K562; 2-18 h
CSNK1A1 = CSNK1A1 (UniProt P48729)
CSNK1D = CSNK1D (UniProt P48730)
DDR1 = DDR1 (UniProt Q08345)
DYRK1B = DYRK1B (UniProt Q9Y463)
DYRK2 = DYRK2 (UniProt Q92630)
EGFR = EGFR (UniProt P00533)
EGFR_G719S = EGFR_G719S (UniProt P00533)
EGFR_G719S_T790M = EGFR_G719S_T790M (UniProt P00533)
EGFR_L718V = EGFR_L718V (UniProt P00533)
EGFR_L858R = EGFR_L858R (UniProt P00533)
EGFR_L861Q = EGFR_L861Q (UniProt P00533)
EGFR_T790M = EGFR_T790M (UniProt P00533)
EPHA2 = EPHA2 (UniProt P29317)
ERBB3 = ERBB3 (UniProt P21860)
[1] = target: ERBB4_R711C (clone: ERBB4_mut) (UniProt Q15303)
ERN1 = ERN1 (UniProt O75460)
FGFR1 = FGFR1 (UniProt P11362)
FGFR2 = FGFR2 (UniProt P21802)
FGFR3 = FGFR3 (UniProt P22607)
FGR = FGR (UniProt P09769)

Protein sequences, listed by entry. Tags and fused reporters are not part of them. Lines headed by an entry give the natural chain unless they say otherwise; changes in a name come on top.
UniProt P48730: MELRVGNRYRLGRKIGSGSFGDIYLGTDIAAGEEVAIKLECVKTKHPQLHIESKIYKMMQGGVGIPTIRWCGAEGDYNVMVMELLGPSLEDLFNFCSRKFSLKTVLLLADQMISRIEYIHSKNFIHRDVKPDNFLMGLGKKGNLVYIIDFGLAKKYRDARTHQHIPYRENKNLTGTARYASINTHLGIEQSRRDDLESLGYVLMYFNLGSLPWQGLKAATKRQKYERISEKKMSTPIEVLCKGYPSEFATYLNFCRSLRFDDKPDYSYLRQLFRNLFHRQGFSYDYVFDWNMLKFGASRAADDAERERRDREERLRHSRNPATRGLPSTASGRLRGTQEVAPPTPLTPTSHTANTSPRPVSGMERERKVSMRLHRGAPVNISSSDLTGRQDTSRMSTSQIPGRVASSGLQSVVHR
UniProt Q08345: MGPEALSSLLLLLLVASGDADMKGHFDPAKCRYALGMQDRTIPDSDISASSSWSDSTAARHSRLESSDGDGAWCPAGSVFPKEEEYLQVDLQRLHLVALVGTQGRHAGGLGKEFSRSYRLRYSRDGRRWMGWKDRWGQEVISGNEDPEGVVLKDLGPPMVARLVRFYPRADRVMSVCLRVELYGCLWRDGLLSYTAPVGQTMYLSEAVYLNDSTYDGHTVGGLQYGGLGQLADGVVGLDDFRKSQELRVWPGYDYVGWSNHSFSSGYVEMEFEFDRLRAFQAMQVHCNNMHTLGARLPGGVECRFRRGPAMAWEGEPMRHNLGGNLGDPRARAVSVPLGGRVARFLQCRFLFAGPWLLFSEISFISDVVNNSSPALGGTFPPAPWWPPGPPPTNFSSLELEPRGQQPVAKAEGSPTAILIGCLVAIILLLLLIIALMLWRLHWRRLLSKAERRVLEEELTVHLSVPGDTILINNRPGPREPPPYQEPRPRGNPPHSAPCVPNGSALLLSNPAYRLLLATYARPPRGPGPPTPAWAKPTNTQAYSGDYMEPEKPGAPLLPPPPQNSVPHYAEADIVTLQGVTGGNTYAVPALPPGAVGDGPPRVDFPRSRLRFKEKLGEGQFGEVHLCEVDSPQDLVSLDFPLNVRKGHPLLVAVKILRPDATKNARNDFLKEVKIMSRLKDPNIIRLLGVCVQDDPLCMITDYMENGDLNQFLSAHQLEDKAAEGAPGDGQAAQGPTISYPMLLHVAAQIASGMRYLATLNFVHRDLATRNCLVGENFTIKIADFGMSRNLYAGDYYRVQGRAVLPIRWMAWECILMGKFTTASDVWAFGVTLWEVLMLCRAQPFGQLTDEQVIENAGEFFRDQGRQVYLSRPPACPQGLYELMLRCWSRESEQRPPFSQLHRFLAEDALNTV
UniProt Q9Y463, whole entry, looked up: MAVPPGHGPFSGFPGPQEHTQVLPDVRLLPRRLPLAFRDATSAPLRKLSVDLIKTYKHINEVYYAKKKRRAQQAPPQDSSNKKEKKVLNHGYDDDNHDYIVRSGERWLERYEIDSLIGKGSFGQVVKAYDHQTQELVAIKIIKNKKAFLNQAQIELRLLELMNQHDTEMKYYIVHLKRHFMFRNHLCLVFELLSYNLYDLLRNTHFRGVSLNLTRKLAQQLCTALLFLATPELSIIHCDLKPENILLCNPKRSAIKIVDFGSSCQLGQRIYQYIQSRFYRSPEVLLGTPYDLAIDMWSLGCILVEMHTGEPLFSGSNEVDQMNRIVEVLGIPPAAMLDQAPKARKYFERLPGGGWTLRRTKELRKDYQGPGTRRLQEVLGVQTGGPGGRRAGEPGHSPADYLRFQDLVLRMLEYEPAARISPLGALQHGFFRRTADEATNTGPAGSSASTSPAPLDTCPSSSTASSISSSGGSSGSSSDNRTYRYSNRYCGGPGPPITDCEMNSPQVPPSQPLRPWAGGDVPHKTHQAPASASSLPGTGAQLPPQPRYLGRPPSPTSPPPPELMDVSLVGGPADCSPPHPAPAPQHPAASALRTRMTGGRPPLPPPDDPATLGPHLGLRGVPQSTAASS
UniProt Q92630: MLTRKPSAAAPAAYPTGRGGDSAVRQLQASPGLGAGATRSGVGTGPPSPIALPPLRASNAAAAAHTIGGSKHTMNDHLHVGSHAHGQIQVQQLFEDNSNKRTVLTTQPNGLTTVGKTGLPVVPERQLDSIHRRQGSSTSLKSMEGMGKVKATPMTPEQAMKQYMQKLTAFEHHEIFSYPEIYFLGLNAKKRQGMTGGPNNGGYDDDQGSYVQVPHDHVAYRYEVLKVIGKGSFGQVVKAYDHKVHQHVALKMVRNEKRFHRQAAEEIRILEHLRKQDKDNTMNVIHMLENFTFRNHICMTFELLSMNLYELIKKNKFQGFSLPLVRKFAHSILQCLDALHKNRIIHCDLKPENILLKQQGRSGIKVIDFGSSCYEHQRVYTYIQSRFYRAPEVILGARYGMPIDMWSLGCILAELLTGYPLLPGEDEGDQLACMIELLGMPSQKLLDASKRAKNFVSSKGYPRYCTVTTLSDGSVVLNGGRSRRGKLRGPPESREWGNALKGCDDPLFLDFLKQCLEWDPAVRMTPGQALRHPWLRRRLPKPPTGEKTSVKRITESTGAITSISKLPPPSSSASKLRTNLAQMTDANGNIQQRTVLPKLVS
UniProt P29317, whole entry: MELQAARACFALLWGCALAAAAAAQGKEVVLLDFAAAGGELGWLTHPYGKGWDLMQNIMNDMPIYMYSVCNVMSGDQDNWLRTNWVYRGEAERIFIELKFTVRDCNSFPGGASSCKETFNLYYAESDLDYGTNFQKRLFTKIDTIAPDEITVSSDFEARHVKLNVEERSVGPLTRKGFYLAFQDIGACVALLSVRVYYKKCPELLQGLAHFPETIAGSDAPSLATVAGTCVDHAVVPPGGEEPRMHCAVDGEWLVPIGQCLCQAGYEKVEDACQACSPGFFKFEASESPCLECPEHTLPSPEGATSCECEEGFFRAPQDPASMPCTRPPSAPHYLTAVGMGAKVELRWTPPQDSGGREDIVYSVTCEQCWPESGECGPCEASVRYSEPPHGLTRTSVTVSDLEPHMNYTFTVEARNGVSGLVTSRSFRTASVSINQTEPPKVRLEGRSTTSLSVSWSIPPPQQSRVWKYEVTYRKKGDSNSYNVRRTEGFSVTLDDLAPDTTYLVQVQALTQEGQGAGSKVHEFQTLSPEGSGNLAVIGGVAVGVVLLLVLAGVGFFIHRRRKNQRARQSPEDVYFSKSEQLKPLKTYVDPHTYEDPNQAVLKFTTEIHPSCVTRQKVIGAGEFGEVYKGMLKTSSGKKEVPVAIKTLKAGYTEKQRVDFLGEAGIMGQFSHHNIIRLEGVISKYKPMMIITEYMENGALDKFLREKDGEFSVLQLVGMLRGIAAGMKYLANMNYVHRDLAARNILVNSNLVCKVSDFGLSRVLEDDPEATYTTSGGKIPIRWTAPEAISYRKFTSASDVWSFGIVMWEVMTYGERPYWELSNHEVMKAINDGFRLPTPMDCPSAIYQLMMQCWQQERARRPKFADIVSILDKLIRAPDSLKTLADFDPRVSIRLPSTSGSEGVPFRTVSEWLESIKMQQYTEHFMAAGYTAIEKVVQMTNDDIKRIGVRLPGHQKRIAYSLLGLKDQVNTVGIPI
UniProt P21860, whole entry: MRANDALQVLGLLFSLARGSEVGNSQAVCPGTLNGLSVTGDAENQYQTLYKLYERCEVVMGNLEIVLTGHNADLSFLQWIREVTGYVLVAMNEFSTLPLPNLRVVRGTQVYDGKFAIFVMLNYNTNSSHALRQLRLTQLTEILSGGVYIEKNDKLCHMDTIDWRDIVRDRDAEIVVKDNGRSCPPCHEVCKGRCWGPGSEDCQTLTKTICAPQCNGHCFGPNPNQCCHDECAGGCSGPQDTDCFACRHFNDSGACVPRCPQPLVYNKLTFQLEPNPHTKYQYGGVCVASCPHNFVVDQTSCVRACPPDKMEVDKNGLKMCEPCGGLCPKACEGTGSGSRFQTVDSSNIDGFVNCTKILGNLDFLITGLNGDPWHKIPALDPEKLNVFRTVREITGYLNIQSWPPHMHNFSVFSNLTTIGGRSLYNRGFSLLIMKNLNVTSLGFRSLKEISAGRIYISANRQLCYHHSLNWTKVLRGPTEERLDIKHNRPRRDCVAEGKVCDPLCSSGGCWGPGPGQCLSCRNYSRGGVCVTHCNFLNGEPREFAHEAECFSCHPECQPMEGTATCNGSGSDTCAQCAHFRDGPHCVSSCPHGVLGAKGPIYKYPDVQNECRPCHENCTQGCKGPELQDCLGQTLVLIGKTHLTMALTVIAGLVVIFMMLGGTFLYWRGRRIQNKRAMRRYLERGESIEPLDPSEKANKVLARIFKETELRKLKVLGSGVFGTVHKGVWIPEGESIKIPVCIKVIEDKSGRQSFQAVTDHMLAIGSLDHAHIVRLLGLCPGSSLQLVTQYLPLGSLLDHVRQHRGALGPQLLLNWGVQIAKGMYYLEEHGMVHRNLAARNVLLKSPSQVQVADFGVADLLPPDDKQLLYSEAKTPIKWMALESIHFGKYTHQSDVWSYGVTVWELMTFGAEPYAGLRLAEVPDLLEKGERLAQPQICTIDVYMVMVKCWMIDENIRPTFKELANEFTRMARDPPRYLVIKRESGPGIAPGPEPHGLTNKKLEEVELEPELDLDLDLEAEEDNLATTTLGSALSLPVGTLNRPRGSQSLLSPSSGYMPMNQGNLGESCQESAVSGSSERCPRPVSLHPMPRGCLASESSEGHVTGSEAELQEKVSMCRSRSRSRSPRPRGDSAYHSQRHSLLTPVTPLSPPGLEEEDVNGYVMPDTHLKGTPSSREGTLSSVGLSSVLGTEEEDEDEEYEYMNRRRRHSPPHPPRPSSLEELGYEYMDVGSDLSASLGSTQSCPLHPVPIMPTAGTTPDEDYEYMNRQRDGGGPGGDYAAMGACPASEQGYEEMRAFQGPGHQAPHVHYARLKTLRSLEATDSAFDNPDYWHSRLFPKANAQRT
UniProt P21802, whole entry, looked up: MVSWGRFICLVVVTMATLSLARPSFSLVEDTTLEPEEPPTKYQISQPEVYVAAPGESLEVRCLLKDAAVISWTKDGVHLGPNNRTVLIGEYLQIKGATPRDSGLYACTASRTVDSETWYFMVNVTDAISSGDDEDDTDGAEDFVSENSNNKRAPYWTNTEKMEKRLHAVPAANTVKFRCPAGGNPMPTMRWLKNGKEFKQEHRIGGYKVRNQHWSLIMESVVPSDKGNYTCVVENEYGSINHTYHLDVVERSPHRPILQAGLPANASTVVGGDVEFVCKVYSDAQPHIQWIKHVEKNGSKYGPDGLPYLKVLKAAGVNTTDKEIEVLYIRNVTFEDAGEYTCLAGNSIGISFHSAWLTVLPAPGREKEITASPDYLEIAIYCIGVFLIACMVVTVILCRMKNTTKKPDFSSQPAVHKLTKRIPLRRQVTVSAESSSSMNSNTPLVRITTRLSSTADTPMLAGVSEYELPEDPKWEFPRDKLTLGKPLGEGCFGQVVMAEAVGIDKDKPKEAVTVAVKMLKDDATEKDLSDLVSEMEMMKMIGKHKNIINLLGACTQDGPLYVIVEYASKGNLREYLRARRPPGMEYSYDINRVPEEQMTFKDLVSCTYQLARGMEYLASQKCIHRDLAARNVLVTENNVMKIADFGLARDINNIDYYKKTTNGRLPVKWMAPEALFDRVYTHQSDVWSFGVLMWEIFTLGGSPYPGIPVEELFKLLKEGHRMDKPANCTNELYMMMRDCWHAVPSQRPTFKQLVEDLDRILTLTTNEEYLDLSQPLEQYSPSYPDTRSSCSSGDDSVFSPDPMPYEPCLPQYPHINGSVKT
UniProt P22607, whole entry, looked up: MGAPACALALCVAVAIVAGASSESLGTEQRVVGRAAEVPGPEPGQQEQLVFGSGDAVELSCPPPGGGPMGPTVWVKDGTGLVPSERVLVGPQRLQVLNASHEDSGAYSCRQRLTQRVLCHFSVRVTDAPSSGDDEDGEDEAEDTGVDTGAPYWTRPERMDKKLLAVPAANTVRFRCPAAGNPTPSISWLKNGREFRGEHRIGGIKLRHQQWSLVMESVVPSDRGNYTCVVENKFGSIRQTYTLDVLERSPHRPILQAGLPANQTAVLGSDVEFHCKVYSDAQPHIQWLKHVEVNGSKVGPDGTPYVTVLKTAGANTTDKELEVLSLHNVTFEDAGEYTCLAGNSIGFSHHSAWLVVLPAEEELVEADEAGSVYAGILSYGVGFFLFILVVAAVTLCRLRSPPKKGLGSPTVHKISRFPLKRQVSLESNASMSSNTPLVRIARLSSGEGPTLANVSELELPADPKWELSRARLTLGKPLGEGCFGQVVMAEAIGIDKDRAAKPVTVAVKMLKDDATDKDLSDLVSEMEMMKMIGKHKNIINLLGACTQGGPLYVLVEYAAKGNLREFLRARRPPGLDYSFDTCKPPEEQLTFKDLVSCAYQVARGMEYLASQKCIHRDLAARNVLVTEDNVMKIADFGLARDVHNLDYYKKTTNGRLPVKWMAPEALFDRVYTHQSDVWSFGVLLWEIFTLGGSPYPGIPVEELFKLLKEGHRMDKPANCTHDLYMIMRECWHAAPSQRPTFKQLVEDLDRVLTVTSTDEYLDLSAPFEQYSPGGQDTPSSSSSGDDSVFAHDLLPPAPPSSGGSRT

SMILES	number of time points (CSNK1A1)	number of time points (CSNK1D)	number of time points (DDR1)	number of time points (DYRK1B)	number of time points (DYRK2)	number of time points (EGFR)	number of time points (EGFR_G719S)	number of time points (EGFR_G719S_T790M)	number of time points (EGFR_L718V)	number of time points (EGFR_L858R)	number of time points (EGFR_L861Q)	number of time points (EGFR_T790M)	number of time points (EPHA2)	number of time points (ERBB3)	number of time points [1]	number of time points (ERN1)	number of time points (FGFR1)	number of time points (FGFR2)	number of time points (FGFR3)	number of time points (FGR)
CN(c1ccc(NC(=O)Nc2ccc(OC(F)(F)F)cc2)cc1)c1ccnc(Nc2cccc(S(N)(=O)=O)c2)n1 (2.5 µM)	3	3	4	1	4	1	3	0	0	1	3	0	0	3	3	1	0	3	0	0
CC(C)=CC(=O)O[C@H]1Cc2cc3ccc(=O)oc3cc2OC1(C)C [Decursin] (10 µM)	0	0	0	0	0	0	0	0	0	0	0	0	0	0	0	0	0	0	0	0
O=C(CNc1cccc(Cl)c1)NC1CCCN(c2ncnc3[nH]ccc23)C1 (stereo not given) (10 µM)	0	0	0	0	0	0	0	0	0	0	0	0	0	0	0	0	0	0	0	0
CCc1ccc(OCC(=O)Nc2ccc(F)c([N+](=O)[O-])c2)cc1 (10 µM)	0	0	0	0	0	0	0	0	0	0	0	0	0	0	0	0	0	0	0	0
N[C@@H](CCC(=O)O)C(=O)N[C@@H](Cc1c[nH]c2ccccc12)C(=O)O [Oglufanide] (10 µM)	0	0	0	0	0	0	0	0	0	0	0	0	0	0	0	0	0	0	0	0
Nc1c(C(=O)NCc2ccc(C(=O)NCCCC3CCCCC3)cc2)cnn1-c1ccccc1 (2.5 µM)	0	0	0	0	0	0	0	0	0	0	0	0	0	0	0	0	0	0	0	0
C=CC(=O)N1CCC[C@H](n2c(=O)n(-c3ccc(Oc4ccccc4)cc3)c3c(N)ncnc32)C1 [ONO-4059 (analog)] (10 µM)	0	0	0	0	0	0	0	0	0	0	0	0	0	0	0	0	0	0	0	0
O=C1NC(=O)C(c2cnc3ccccn23)=C1c1cn2c3c(cc(F)cc13)CNCC2 [GSK-3 inhibitor 1] (2.5 µM)	0	0	0	0	0	0	0	0	0	0	0	0	0	0	0	0	0	0	0	0
Cc1cnc(NC2CCOCC2)nc1-n1cnc(C(=O)N[C@H](CN)c2cc(F)cc(Cl)c2)c1 (10 µM)	0	0	0	0	0	0	0	0	0	0	0	0	0	0	1	0	0	0	0	0
Cn1cc2cc(C(F)(F)c3nnc4ccc(-c5cnn(C6CC6)c5)nn34)c(F)cc2n1 [Bozitinib] (10 µM)	0	0	4	0	0	0	0	2	0	0	0	0	0	2	4	0	0	0	0	0
C=CC(=O)N1C(=O)CC(c2ccc(F)cc2)Sc2ccccc21 (stereo not drawn) [GSK-3β inhibitor 3] (10 µM)	1	0	2	0	0	0	0	0	0	0	0	0	0	0	0	0	0	2	0	0
Cc1ccn2c(C(=O)C(=O)c3ccccc3)c(-c3ccccc3)nc2c1 (10 µM)	0	0	0	0	0	0	0	0	0	0	0	0	0	0	0	0	0	0	0	0
COc1nn(C)cc1Nc1nccc(-c2c[nH]c3c(NC(=O)[C@@H](C)N4CCN(C)CC4)cccc23)n1 (10 µM)	0	0	0	0	0	0	0	0	0	0	0	0	0	0	0	0	0	0	0	0
Cc1nc(-c2cnn(C)c2)nc2c1[nH]c1ncc(-c3ccc(N4CCN(C)CC4)cc3)cc12 [GNE 220 (hydrochloride)] (10 µM)	0	0	0	0	0	0	0	0	0	0	0	0	0	0	0	0	0	0	0	0
Nc1n[nH]c2nc(-c3ccc(NS(=O)(=O)c4cc(Cl)ccc4F)cc3)cnc12 (10 µM)	0	0	5	0	0	0	0	0	0	0	0	5	0	0	0	0	0	0	0	0
CC(C)=CCc1c(-c2ccc(O)cc2O)oc2c3c(cc(O)c2c1=O)OC(C)(C)C=C3 [Morusin] (2.5 µM)	0	0	0	0	0	0	0	0	0	0	0	0	0	0	0	0	0	0	0	0
O=C(Nc1cccc(Nc2ncc(Br)c(NCCc3cnc[nH]3)n2)c1)N1CCCC1 (10 µM)	0	0	4	0	4	0	1	0	0	1	2	0	0	3	3	0	0	2	0	0
Cc1ncc(NC(=O)NC2c3ccccc3-c3ccccc32)c(-c2ccccc2)n1 (10 µM)	0	0	0	0	0	0	0	0	0	0	0	0	0	0	0	0	0	0	0	0
CCCCCCCC/C=C\CCCCCCCCCCCC(=O)O [Erucic acid] (10 µM)	0	0	0	0	0	0	0	0	0	0	0	0	0	0	0	0	0	0	0	0
C[C@H](Nc1ncnc2[nH]cnc12)c1cc2ccc(F)cc2nc1-c1ccccn1 (10 µM)	0	0	0	0	0	0	0	0	0	0	0	0	0	0	0	0	0	0	0	0
C[C@H](Nc1ncnc2nc[nH]c12)c1cc2cccc(Cl)c2c(=O)n1-c1ccccc1 [Duvelisib] (10 µM)	0	0	0	0	0	0	0	0	0	0	0	0	0	0	0	0	0	0	0	0
N#Cc1c2nc3ccccc3nc2n2ccc(NC(=O)c3cccs3)cc12 (10 µM)	0	0	0	0	0	0	0	0	0	0	0	0	0	0	0	0	0	0	0	0
Oc1ccc(/C=C/c2cc(O)cc(F)c2)cc1 [Resveratrol analog 1] (10 µM)	0	0	0	0	0	0	0	0	0	0	0	0	0	0	0	0	0	0	0	0
Nc1nc(N)c2nc(-c3cccc(O)c3)cnc2n1 (10 µM)	0	0	0	0	0	0	0	0	0	0	0	0	0	0	0	0	0	0	0	0

No new results follow: an excerpt of the list.
SMILES	number of time points (CSNK1A1)	number of time points (CSNK1D)	number of time points (DDR1)	number of time points (DYRK1B)	number of time points (DYRK2)	number of time points (EGFR)	number of time points (EGFR_G719S)	number of time points (EGFR_G719S_T790M)	number of time points (EGFR_L718V)	number of time points (EGFR_L858R)	number of time points (EGFR_L861Q)	number of time points (EGFR_T790M)	number of time points (EPHA2)	number of time points (ERBB3)	number of time points [1]	number of time points (ERN1)	number of time points (FGFR1)	number of time points (FGFR2)	number of time points (FGFR3)	number of time points (FGR)
Cc1nc(-c2cnn(C)c2)nc2c1[nH]c1ncc(-c3ccc(N4CCN(C)CC4)cc3)cc12 [GNE 220 (hydrochloride)] (10 µM)	0	0	0	0	0	0	0	0	0	0	0	0	0	0	0	0	0	0	0	0
Nc1n[nH]c2nc(-c3ccc(NS(=O)(=O)c4cc(Cl)ccc4F)cc3)cnc12 (10 µM)	0	0	5	0	0	0	0	0	0	0	0	5	0	0	0	0	0	0	0	0

From the supplement of paper PMC12823440, “Inhibitors supercharge kinase turnover through native proteolytic circuits” (Nature, 2025)
